Laboratory results as given in paper PMC2583047.
These are yes or no findings as the source states them, for the method shown. In cells and extracts the contact can be indirect. Some entries that bind do so weakly or less than the wild type.

Protein sequences, listed by entry. Tags and fused reporters are not part of them. Lines headed by an entry give the natural chain unless they say otherwise; changes in a name come on top.
UniProt P40337: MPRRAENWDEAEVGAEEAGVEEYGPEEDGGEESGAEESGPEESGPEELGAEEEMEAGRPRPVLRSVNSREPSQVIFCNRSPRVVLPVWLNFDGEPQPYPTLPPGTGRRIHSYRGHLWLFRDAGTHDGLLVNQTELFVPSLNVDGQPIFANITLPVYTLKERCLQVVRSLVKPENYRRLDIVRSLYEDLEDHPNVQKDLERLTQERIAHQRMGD
UniProt P62869: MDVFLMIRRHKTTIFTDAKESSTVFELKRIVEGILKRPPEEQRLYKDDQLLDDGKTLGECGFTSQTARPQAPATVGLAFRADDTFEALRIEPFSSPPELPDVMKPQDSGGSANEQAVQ
UniProt Q9D4H8: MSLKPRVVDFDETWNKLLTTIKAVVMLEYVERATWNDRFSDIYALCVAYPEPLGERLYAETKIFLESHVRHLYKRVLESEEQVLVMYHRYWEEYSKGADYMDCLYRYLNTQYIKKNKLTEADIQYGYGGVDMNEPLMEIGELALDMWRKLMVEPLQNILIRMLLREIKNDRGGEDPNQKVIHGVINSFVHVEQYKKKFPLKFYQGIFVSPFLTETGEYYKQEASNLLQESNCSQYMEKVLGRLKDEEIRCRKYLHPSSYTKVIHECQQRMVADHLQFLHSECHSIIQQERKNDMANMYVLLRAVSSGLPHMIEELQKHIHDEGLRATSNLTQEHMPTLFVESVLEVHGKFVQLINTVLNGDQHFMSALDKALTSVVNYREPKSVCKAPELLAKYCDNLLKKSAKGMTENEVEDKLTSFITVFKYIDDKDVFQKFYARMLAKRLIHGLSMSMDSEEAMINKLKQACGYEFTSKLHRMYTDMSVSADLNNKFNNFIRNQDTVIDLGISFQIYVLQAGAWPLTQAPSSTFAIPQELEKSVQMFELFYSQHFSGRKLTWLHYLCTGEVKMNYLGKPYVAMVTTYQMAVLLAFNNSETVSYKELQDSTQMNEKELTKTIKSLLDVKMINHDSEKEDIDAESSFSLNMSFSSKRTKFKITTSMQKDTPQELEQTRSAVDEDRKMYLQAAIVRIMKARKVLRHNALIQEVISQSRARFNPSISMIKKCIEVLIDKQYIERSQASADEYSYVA

Columns and labels:
Test in all cases: co-IP; anti-HA immunoprecipitation (Profound Mammalian HA Tag IP/Co IP Kit) of HA-pVHL from M-PER lysates of stably transfected Vhl-null murine ES cells; endogenous murine VBC members detected by immunoblot
[1] = target: R167Q (Type 2B) mutant HA-tagged human pVHL (in Vhl-null murine ES cells) (human) (UniProt P40337)
[2] = target: R200W (Chuvash polycythemia) mutant HA-tagged human pVHL (in Vhl-null murine ES cells) (human) (UniProt P40337)
[3] = target: wild-type HA-tagged human pVHL (in Vhl-null murine ES cells) (human) (UniProt P40337)
[4] = target: Y112H (Type 2A) mutant HA-tagged human pVHL (in Vhl-null murine ES cells) (human) (UniProt P40337)
[5] = target: L188V (Type 2C) mutant HA-tagged human pVHL (in Vhl-null murine ES cells) (human) (UniProt P40337)

| binding [1] | binding [2] | binding [3] | binding [4] | binding [5] | Substance |
| --- | --- | --- | --- | --- | --- |
| binds | binds | binds | binds | binds | murine Elongin B (endogenous in ES cells) (from UniProt P62869 1-118) |
| binds | binds | binds | binds | binds | murine Cul2 (endogenous in ES cells) (from UniProt Q9D4H8 1-745) |
